Assay results reported in the supplement of paper PMC6078165.

Tested on: HCC1143
Test: relative JC-1 red fluorescence (viability) vs pre-drug, coculture with fibroblast (fraction); higher = more viable cancer cells
Experimental: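 JC-1 labelled TNBC cells cocultured 1:1 (1,500 cells each) with CellTrace Violet stained primary or stromal fibroblasts in 384-well plates in FluoroBrite medium, treated with one of 42 anticancer drugs at 0.1, 1, 10 or 100 uM. JC-1 red fluorescence (mitochondrial integrity in cancer cells only) was read by plate reader every 8 h for 72 h. Values are normalised to each well's pre-drug value. The stock of one drug was tenfold lower, so its dose labels may be too high.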

C=C1C[C@@H]2[C@H](CC[C@]3(C)C(=O)CC[C@@H]23)[C@@]2(C)C=CC(=O)C=C12 [Exemestane]
relative JC-1 red fluorescence
Conditions	8 h	16 h	24 h	32 h	40 h	48 h	56 h	64 h	72 h
0.1 µM, coculture fibroblast: C12385	0.8544	0.7881	0.733	0.682	0.62	0.577	0.53	0.485	0.465
0.1 µM, coculture fibroblast: H6013	0.778	0.643	0.621	0.6066	0.54	0.54	0.498	0.482	0.4273
0.1 µM, coculture fibroblast: H6019	0.792	0.684	0.636	0.573	0.535	0.505	0.464	0.419	0.388
0.1 µM, coculture fibroblast: H6076	0.794	0.742	0.698	0.66	0.61009	0.596	0.5719	0.549	0.5585
0.1 µM, coculture fibroblast: H6231	0.799	0.832	0.713	0.565	0.593	0.551	0.503	0.459	0.427
0.1 µM, coculture fibroblast: HADF	0.729	0.63	0.606	0.615	0.51	0.483	0.441	0.417	0.416
0.1 µM, coculture fibroblast: HCFa	0.785	0.666	0.625	0.597	0.508	0.477	0.429	0.392	0.363
0.1 µM, coculture fibroblast: HCPF	0.7869	0.811	0.7246	0.603	0.617	0.575	0.523	0.485	0.462
0.1 µM, coculture fibroblast: HHSteC	0.853	0.75	0.725	0.691	0.606	0.581	0.531	0.497	0.46
0.1 µM, coculture fibroblast: HMF	0.78	0.794	0.7202	0.617	0.624	0.581	0.531	0.499	0.471
0.1 µM, coculture fibroblast: HPFa	0.945	0.851	0.786	0.695	0.619	0.575	0.497	0.445	0.404
0.1 µM, coculture fibroblast: HUF	0.873	0.759	0.704	0.616	0.562	0.53	0.481	0.444	0.414
0.1 µM, coculture fibroblast: Hs5	0.8414	0.806	0.759	0.7414	0.6708	0.637	0.599	0.574	0.57
0.1 µM, coculture fibroblast: Hs27A	0.707	0.618	0.577	0.592	0.463	0.444	0.395	0.356	0.326
0.1 µM, coculture fibroblast: Hs343T	0.827	0.8412	0.793	0.704	0.699	0.665	0.609	0.583	0.547
0.1 µM, coculture fibroblast: WS1	0.857	0.762	0.718	0.657	0.591	0.558	0.518	0.49	0.47
1 µM, coculture fibroblast: C12385	0.867	0.775	0.72	0.652	0.584	0.536	0.498	0.455	0.433
1 µM, coculture fibroblast: H6013	0.742	0.666	0.6195	0.598	0.525	0.52	0.479	0.457	0.407
1 µM, coculture fibroblast: H6019	0.8094	0.70586	0.6638	0.5999	0.5458	0.505	0.457	0.401	0.365
1 µM, coculture fibroblast: H6076	0.786	0.742	0.7	0.6782	0.6205	0.6011	0.5701	0.543	0.5497
1 µM, coculture fibroblast: H6231	0.8078	0.789	0.692	0.604	0.592	0.562	0.521	0.477	0.452
1 µM, coculture fibroblast: HADF	0.766	0.695	0.679	0.688	0.613	0.593	0.567	0.544	0.504
1 µM, coculture fibroblast: HCFa	0.768	0.675	0.616	0.594	0.494	0.461	0.414	0.378	0.344
1 µM, coculture fibroblast: HCPF	0.815	0.746	0.715	0.671	0.63428	0.6098	0.5709	0.537	0.5226
1 µM, coculture fibroblast: HHSteC	0.852	0.765	0.735	0.698	0.638	0.612	0.561	0.534	0.472
1 µM, coculture fibroblast: HMF	0.792	0.7728	0.726	0.67	0.626	0.606	0.555	0.527	0.507
1 µM, coculture fibroblast: HPFa	0.933	0.835	0.79	0.695	0.6139	0.567	0.492	0.433	0.377
1 µM, coculture fibroblast: HUF	0.907	0.815	0.779	0.705	0.66	0.616	0.562	0.529	0.497
1 µM, coculture fibroblast: Hs5	0.8479	0.906	0.843	0.765	0.719	0.675	0.63	0.6	0.565
1 µM, coculture fibroblast: Hs27A	0.693	0.62	0.582	0.59	0.462	0.451	0.399	0.364	0.322
1 µM, coculture fibroblast: Hs343T	0.807	0.736	0.689	0.653	0.588	0.56	0.51	0.493	0.477
1 µM, coculture fibroblast: WS1	0.825	0.701	0.658	0.584	0.516	0.466	0.414	0.367	0.342

The reference is the same well before dosing, and untreated signal decays as well.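 Fibroblast labels name human fibroblasts: mostly primary ones from tissues such as uterus (C12385, HUF), lung (H6013), bone (Hs27A), adrenal (HADF) and skin (WS1), plus mammary HMF and breast cancer-associated Hs343T. The cancer cells are basal-like or mesenchymal-like triple-negative breast cancer lines. The paper calls a changed response a hit when it shifts by more than 3x the replicate standard deviation. The tissue of the other fibroblasts is not given here.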
